Source: the supplement of paper PMC8728848
This is one part of the list.

Assays:
Experiment in all cases: glycan array binding signal (z-score within array); higher = stronger binding
Details in all cases: glycan notation: IUPAC condensed, linker removed
Fuc(a1-3)GlcNAc = molecular target: Fuc(a1-3)GlcNAc
Procedure, shortened: (§1)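 Negative Z-scores can be read as non-binding. The Z-score is calculated within each array and then averaged across arrays of one protein sequence at different concentrations or buffers and across linkers. Arrays, 3228 in all, were curated from the Consortium for Functional Glycomics database and kept only where the protein sequence was available.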

[1] = molecular target: Fuc(a1-3)[Gal(b1-4)]Glc6S
Procedure, shortened: as §1

[2] = molecular target: Fuc(a1-3)[Gal(b1-4)]GlcNAc
Procedure, shortened: as §1

[3] = molecular target: Fuc(a1-3)[Gal(b1-4)]GlcNAc(b1-2)Man
Procedure, shortened: as §1

[4] = molecular target: Fuc(a1-3)[Gal(b1-4)]GlcNAc(b1-2)Man(a1-3)[Fuc(a1-3)[Gal(b1-4)]GlcNAc(b1-2)Man(a1-6)]Man(b1-4)GlcNAc(b1-4)GlcNAc
Procedure, shortened: as §1

[5] = molecular target: Fuc(a1-3)[Gal(b1-4)]GlcNAc(b1-2)Man(a1-3)[Fuc(a1-3)[Gal(b1-4)]GlcNAc(b1-2)Man(a1-6)]Man(b1-4)GlcNAc(b1-4)[Fuc(a1-6)]GlcNAc
Procedure, shortened: as §1

[6] = molecular target: Fuc(a1-3)[Gal(b1-4)]GlcNAc(b1-3)Gal(b1-3)[Fuc(a1-4)]GlcNAc
Procedure, shortened: as §1

[7] = molecular target: Fuc(a1-3)[Gal(b1-4)]GlcNAc(b1-3)Gal(b1-4)[Fuc(a1-3)]GlcNAc
Procedure, shortened: as §1

[8] = molecular target: Fuc(a1-3)[Gal(b1-4)]GlcNAc(b1-3)Gal(b1-4)[Fuc(a1-3)]GlcNAc(b1-3)Gal(b1-4)[Fuc(a1-3)]GlcNAc
Procedure, shortened: as §1

[9] = molecular target: Fuc(a1-3)[Gal(b1-4)]GlcNAc(b1-3)GalNAc
Procedure, shortened: as §1

[10] = molecular target: Fuc(a1-3)[Gal(b1-4)]GlcNAc(b1-6)GalNAc
Procedure, shortened: as §1

[11] = molecular target: Fuc(a1-3)[Gal(b1-4)]GlcNAc(b1-6)[Gal(b1-3)GlcNAc(b1-3)]Gal(b1-4)Glc
Procedure, shortened: as §1

[12] = molecular target: Fuc(a1-3)[Gal(b1-4)]GlcNAc6S
Procedure, shortened: as §1

[13] = molecular target: Fuc(a1-3)[Gal3S(b1-4)]Glc
Procedure, shortened: as §1

[14] = molecular target: Fuc(a1-3)[Gal3S(b1-4)]GlcNAc
Procedure, shortened: as §1

[15] = molecular target: Fuc(a1-3)[Gal3S(b1-4)]GlcNAc6S
Procedure, shortened: as §1

[16] = molecular target: Fuc(a1-3)[GalNAc(b1-4)]GlcNAc
Procedure, shortened: as §1

[17] = molecular target: Fuc(a1-3)[GalNAc(b1-4)]GlcNAc6S
Procedure, shortened: as §1

Fuc(a1-4)GlcNAc = molecular target: Fuc(a1-4)GlcNAc
Procedure, shortened: as §1

Fuc(b1-3)GlcNAc = molecular target: Fuc(b1-3)GlcNAc
Procedure, shortened: as §1

Gal(a1-2)Gal = molecular target: Gal(a1-2)Gal
Procedure, shortened: as §1

Gal(a1-3)Gal = molecular target: Gal(a1-3)Gal
Procedure, shortened: as §1

Gal(a1-3)Gal(b1-3)GlcNAc = molecular target: Gal(a1-3)Gal(b1-3)GlcNAc
Procedure, shortened: as §1

[18] = molecular target: Gal(a1-3)Gal(b1-3)GlcNAc(b1-2)Man
Procedure, shortened: as §1

[19] = molecular target: Gal(a1-3)Gal(b1-3)GlcNAc(b1-2)Man(a1-3)[Gal(a1-3)Gal(b1-3)GlcNAc(b1-2)Man(a1-6)]Man(b1-4)GlcNAc(b1-4)GlcNAc
Procedure, shortened: as §1

[20] = molecular target: Gal(a1-3)Gal(b1-3)GlcNAc(b1-3)GalNAc
Procedure, shortened: as §1

[21] = molecular target: Gal(a1-3)Gal(b1-3)GlcNAc(b1-6)GalNAc
Procedure, shortened: as §1

[22] = molecular target: Gal(a1-3)Gal(b1-3)[Fuc(a1-4)]GlcNAc(b1-2)Man(a1-3)[Gal(a1-3)Gal(b1-3)[Fuc(a1-4)]GlcNAc(b1-2)Man(a1-6)]Man(b1-4)GlcNAc(b1-4)GlcNAc
Procedure, shortened: as §1

Gal(a1-3)Gal(b1-4)Glc = molecular target: Gal(a1-3)Gal(b1-4)Glc
Procedure, shortened: as §1

Gal(a1-3)Gal(b1-4)GlcNAc = molecular target: Gal(a1-3)Gal(b1-4)GlcNAc
Procedure, shortened: as §1

[23] = molecular target: Gal(a1-3)Gal(b1-4)GlcNAc(b1-2)Man
Procedure, shortened: as §1

[24] = molecular target: Gal(a1-3)Gal(b1-4)GlcNAc(b1-2)Man(a1-3)[Gal(a1-3)Gal(b1-4)GlcNAc(b1-2)Man(a1-6)]Man(b1-4)GlcNAc(b1-4)GlcNAc
Procedure, shortened: as §1

[25] = molecular target: Gal(a1-3)Gal(b1-4)GlcNAc(b1-3)GalNAc
Procedure, shortened: as §1

[26] = molecular target: Gal(a1-3)Gal(b1-4)GlcNAc(b1-6)GalNAc
Procedure, shortened: as §1

[27] = molecular target: Gal(a1-3)Gal(b1-4)[Fuc(a1-3)]GlcNAc
Procedure, shortened: as §1

[28] = molecular target: Gal(a1-3)Gal(b1-4)[Fuc(a1-3)]GlcNAc(b1-2)Man(a1-3)[Gal(a1-3)Gal(b1-4)[Fuc(a1-3)]GlcNAc(b1-2)Man(a1-6)]Man(b1-4)GlcNAc(b1-4)GlcNAc
Procedure, shortened: as §1

Gal(a1-3)GalNAc = molecular target: Gal(a1-3)GalNAc
Procedure, shortened: as §1

B1: PX9937I-bfa-538-26-538 (Bacteroides fragilis) (protein)
chain: DKLDLSPIDYYGSGSYWKTEAQATAYIDGIHKHLRDAAWQHTITFGELRGGRFITGASSDGMGVSNGDIILQNFDETHTGVSKFGDLFGRITNLNLFIARVTDATYLSDEMKNFYLGEVYGLRAFYYFDLYRIYGGVPLRLTADVVEGVIDPNKLYMARSTPKEVMTQIKSDLNKSMEYFGNMNDFDPYKRGKKVYWSKAATECLMGEVYLWTSKVTTGDDVANPADLTIAKTHLESVLNNYNLKMLDDFSQVFNAKNKANDEIIFAIRFLEGEATNSNGTFTYNVGTGSTKNRYQANGEVFGDALDIQNTGNQTYEYNKAVYQNFDDADTRKEATFIASYNKDGKTGELSLYGTHVRKNIGYVNAQGARVYCGDYIFYRLPWVYLTLAEIANMEGDNAAVAKYINLVRKRAYGNAWDETLYAYPETADFTTNELAILHEKDKEFIQEGQRWWDLRRMTLTKGGTPLVFCKEGSLLGDAPILNKSTEAHKLLWPIEKTMLNKDPALEQTPGYK
glycan array binding signal (z-score) (Fuc(a1-3)GlcNAc): -0.104
glycan array binding signal (z-score) [1]: 0.068
glycan array binding signal (z-score) [2]: -0.402
glycan array binding signal (z-score) [3]: -0.738
glycan array binding signal (z-score) [4]: 3.92
glycan array binding signal (z-score) [5]: 0.188
glycan array binding signal (z-score) [6]: 2.12
glycan array binding signal (z-score) [7]: 0.002
glycan array binding signal (z-score) [8]: -0.05
glycan array binding signal (z-score) [9]: -0.545
glycan array binding signal (z-score) [10]: 0.465
glycan array binding signal (z-score) [11]: 0.684
glycan array binding signal (z-score) [12]: -0.898
glycan array binding signal (z-score) [13]: 1.07
glycan array binding signal (z-score) [14]: 0.026
glycan array binding signal (z-score) [15]: -0.028
glycan array binding signal (z-score) [16]: 1.19
glycan array binding signal (z-score) [17]: -0.039
glycan array binding signal (z-score) (Fuc(a1-4)GlcNAc): 0.593
glycan array binding signal (z-score) (Fuc(b1-3)GlcNAc): -0.173
glycan array binding signal (z-score) (Gal(a1-2)Gal): -0.306
glycan array binding signal (z-score) (Gal(a1-3)Gal): -0.371
glycan array binding signal (z-score) (Gal(a1-3)Gal(b1-3)GlcNAc): 0.142
glycan array binding signal (z-score) [18]: -0.156
glycan array binding signal (z-score) [19]: 0.317
glycan array binding signal (z-score) [20]: -0.097
glycan array binding signal (z-score) [21]: 0.142
glycan array binding signal (z-score) [22]: 3.11
glycan array binding signal (z-score) (Gal(a1-3)Gal(b1-4)Glc): 0.57
glycan array binding signal (z-score) (Gal(a1-3)Gal(b1-4)GlcNAc): -0.994
glycan array binding signal (z-score) [23]: -0.574
glycan array binding signal (z-score) [24]: 2.06
glycan array binding signal (z-score) [25]: -1.27
glycan array binding signal (z-score) [26]: -0.398
glycan array binding signal (z-score) [27]: 0.196
glycan array binding signal (z-score) [28]: 0.583
glycan array binding signal (z-score) (Gal(a1-3)GalNAc): -0.393
